Measurements reported in publication PMC2904373.
No constants are given. Whether binding was seen depends on the method and setting. In cells and extracts the contact can be indirect. Some binding calls cover weakened binding; strength is not graded here.

Molecular target: T1, p63 (human (endogenous in ME180)) (UniProt Q9H3D4)
T1 sequence: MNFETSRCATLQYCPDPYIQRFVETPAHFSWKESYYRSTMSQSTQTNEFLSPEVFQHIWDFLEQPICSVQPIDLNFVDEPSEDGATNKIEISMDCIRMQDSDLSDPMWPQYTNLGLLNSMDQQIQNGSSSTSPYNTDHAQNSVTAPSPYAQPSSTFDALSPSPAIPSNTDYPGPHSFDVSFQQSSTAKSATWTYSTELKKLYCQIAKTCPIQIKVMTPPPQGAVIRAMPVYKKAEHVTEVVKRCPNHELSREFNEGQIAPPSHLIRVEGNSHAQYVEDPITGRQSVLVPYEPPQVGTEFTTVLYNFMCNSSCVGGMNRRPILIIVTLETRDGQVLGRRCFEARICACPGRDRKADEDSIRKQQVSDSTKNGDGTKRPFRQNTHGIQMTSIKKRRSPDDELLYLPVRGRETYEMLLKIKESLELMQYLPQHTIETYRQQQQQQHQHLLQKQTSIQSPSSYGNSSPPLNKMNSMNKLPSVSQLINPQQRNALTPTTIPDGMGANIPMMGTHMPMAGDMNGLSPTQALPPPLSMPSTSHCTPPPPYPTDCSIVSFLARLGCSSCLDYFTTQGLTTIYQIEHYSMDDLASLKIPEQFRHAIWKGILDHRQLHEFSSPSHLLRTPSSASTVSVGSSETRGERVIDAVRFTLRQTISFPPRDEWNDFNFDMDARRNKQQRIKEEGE
Experiment: co-IP; eluates of the first and second immunoprecipitations of sequential ChIP from ME180 chromatin (4A4 anti-p63 then 11C12 anti-p73, and the reverse); eluates probed by Western blot with anti-p73 or anti-p63

B1: p73 (protein, UniProt O15350 1-636)
chain: MAQSTATSPDGGTTFEHLWSSLEPDSTYFDLPQSSRGNNEVVGGTDSSMDVFHLEGMTTSVMAQFNLLSSTMDQMSSRAASASPYTPEHAASVPTHSPYAQPSSTFDTMSPAPVIPSNTDYPGPHHFEVTFQQSSTAKSATWTYSPLLKKLYCQIAKTCPIQIKVSTPPPPGTAIRAMPVYKKAEHVTDVVKRCPNHELGRDFNEGQSAPASHLIRVEGNNLSQYVDDPVTGRQSVVVPYEPPQVGTEFTTILYNFMCNSSCVGGMNRRPILIIITLEMRDGQVLGRRSFEGRICACPGRDRKADEDHYREQQALNESSAKNGAASKRAFKQSPPAVPALGAGVKKRRHGDEDTYYLQVRGRENFEILMKLKESLELMELVPQPLVDSYRQQQQLLQRPSHLQPPSYGPVLSPMNKVHGGMNKLPSVNQLVGQPPPHSSAATPNLGPVGPGMLNNHGHAVPANGEMSSSHSAQSMVSGSHCTPPPPYHADPSLVSFLTGLGCPNCIEYFTSQGLQSIYHLQNLTIEDLGALKIPEQYRMTIWRGLQDLKQGHDYSTAQQLLRSSNAATISIGGSGELQRQRVMEAVHFRVRHTITIPNRGGPGGGPDEWADFGFDLPDCKARKQPIKEEFTEAEIH
In the case of B1, the binding is reported as “binds”.
